This note sets out measurements from paper PMC9700792.

For at least one entry, the source does not settle the construct or the ends of the probe. Results from cells or extracts need not show a direct contact.

This data set deals with PPARγ + RXRα. In words: EMSA. Conditions: unlabeled self-competitor 0.05-5 uM also tested (outcome only in gel), LightShift chemiluminescent kit, 20 min incubation with nuclear extract, pH and temperature not given, protein in a lysate after overexpression, label: biotin 3' end.

Regarding “CCATCCGTGTGACCTTTGGCCCCAGTGGGA (double strand) [Kbtbd11 PPRE1]”, the binding result is on record as “binds”.
With “CTGAGTGGTAGGGTAAAGTTCAGCATGGGC (double strand) [Kbtbd11 PPRE2]”, the binding result is listed as “binds”.
